{"source": "PubChem BioAssay AID485298", "about": "(National Center for Advancing Translational Sciences (NCATS), 2010)", "note": "About 740 (0.23%) of roughly 320,000 compounds were called active. The inconclusive results got no clear call from the source; some entries with a clear call stand among them for comparison. The call rests on the fitted dose curve; in most records, active means well fitted activation curve with a large enough effect; inconclusive means small, poorly fitted or top-dose-only effect; inactive means no such curve, though single readings can be large or run the other way. Potencies of inconclusive entries are doubtful fits and often do not repeat. Potency means the concentration at half of the fitted maximal effect."}
{"experiment": "qHTS Assay for Small Molecule Inhibitors of Mitochondrial Division or Activators of Mitochondrial Fusion; further: nearly all actives have a fitted effect of over 45% in size;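 on growth rescue (activation): temperature-sensitive fusion mutants such as fzo1-1 at 37 °C on non-fermentable ethanol glycerol medium; % of control where 0% means no effect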", "settings": "S. cerevisiae fusion-defective mutant growth rescue, CellTiterGlo 48 h; growth rescue (activation): at 46.1 µM (top of the series) unless noted", "summary_of_the_method": "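Read-out: ATP-based luminescence (CellTiterGlo, 10 min ambient) reporting growth of fusion-defective ts yeast after 48 hours at 37C on glycerol/ethanol YPEG medium in the presence of compound.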"}
{"smiles": "O=S(=O)(c1cccs1)N1CCC(CO)(Cc2ccc(Cl)cc2)CC1", "Potency": "inconclusive: 35.5 µM [activator, single point]"}
{"smiles": "O=[N+]([O-])c1cc(C(F)(F)F)ccc1NCCc1c[nH]c2ccc(O)cc12", "Potency": "inconclusive: 12.6 µM [activator, partial curve]"}
{"smiles": "COc1ccc(NC(=O)CN(C)C(=O)c2cc(-c3ccc(Cl)cc3)nc3ccccc23)cc1", "Potency": "inconclusive: 14.1 µM [activator, single point]"}
{"smiles": "CN(C)c1cccc(C(=O)NC2CCCc3ccccc32)c1", "note": "(centres undefined)", "Potency": "inconclusive: 15.8 µM [activator, single point]"}
{"smiles": "O=C(CCCN1C(=O)/C(=C\\c2cccs2)SC1=S)Nc1ccccn1", "Potency": "inconclusive: 35.5 µM [activator, single point]"}
{"smiles": "Cc1cc(/C=N/Nc2ccc([N+](=O)[O-])cn2)c(C)n1-c1ccc(C(=O)O)cc1", "Potency": "inconclusive: 15.8 µM [activator, partial curve]"}
{"smiles": "CC(=O)Nc1cc(C(=O)N2CCc3ccccc3C2)ccc1Sc1ccc(C)cc1", "Potency": "inconclusive: 31.6 µM [activator, single point]"}
{"smiles": "Cc1ccc(S(=O)(=O)Cn2nnnc2CN2CCCC3(CCCCC3)C2)cc1", "Potency": "inconclusive: 17.8 µM [activator, single point]"}
{"smiles": "O=C(NC(=S)NNC(=O)[C@H]1C[C@@H]1c1ccccc1)c1ccc(F)cc1", "Potency": "inconclusive: 35.5 µM [activator, single point]"}
{"smiles": "Cc1cccc(OCC(=O)NC2CCCc3ccccc32)c1C", "note": "(centres undefined)", "Potency": "inconclusive: 15.8 µM [activator, single point]"}
{"smiles": "O=C(c1ccccc1)c1ccc(-c2ccc(O)cc2)cc1", "Potency": "inconclusive: 12.6 µM [activator, partial curve]"}
{"smiles": "CN(C)CCCN(C(=O)c1ccc(S(=O)(=O)N(C)Cc2ccccc2)cc1)c1nc2cc3c(cc2s1)OCO3", "growth rescue (activation)": "inactive: -9.74%"}
{"smiles": "COc1ccc(C2=CC(=O)C[C@H](c3ccc4c(c3)OCO4)C2)cc1", "Potency": "inconclusive: 15.8 µM [activator, single point]"}
{"smiles": "CCC1CCCCN1C(=O)CSc1nnc(-c2ccc(Cl)s2)o1", "note": "(centres undefined)", "Potency": "inconclusive: 12.6 µM [activator, partial curve]"}
{"smiles": "Cc1ccc(-n2cnn(-c3ccc([N+](=O)[O-])cc3[N+](=O)[O-])c2=O)cc1", "Potency": "inconclusive: 15.8 µM [activator, single point]"}
{"smiles": "Nc1nc(N)c2ncc(C(=O)CCc3ccccc3)nc2n1", "Potency": "inconclusive: 3.16 µM [activator, partial curve]"}
{"smiles": "CC(=O)c1cc(C#N)c(SCc2ccccc2)nc1C", "Potency": "inconclusive: 11.2 µM [activator, partial curve]"}
{"smiles": "CCOc1ccc(S(=O)(=O)Nc2ccc(F)cc2)c(C)c1C", "growth rescue (activation)": "inactive: 23.6%"}
{"smiles": "O=C(Cc1cccs1)Nc1ccc(Cl)c(S(=O)(=O)N2CCOCC2)c1", "growth rescue (activation)": "inactive: 1.11%"}
{"smiles": "CCc1ccc(C(=O)NNC(=O)CN2C(=O)NC(CC)(c3ccccc3)C2=O)cc1", "note": "(centres undefined)", "growth rescue (activation)": "inactive: -19%"}
{"smiles": "COc1c(C)cc(C(=O)C2CCCN(S(=O)(=O)N(C)C)C2)cc1C", "note": "(centres undefined)", "growth rescue (activation)": "inactive: -1.36%"}
{"smiles": "Cc1cccc(N2CCN(C(=O)C(Cc3ccccc3)n3cccc3)CC2)c1C", "note": "(centres undefined)", "Potency": "inconclusive: 35.5 µM [activator, single point]"}
{"smiles": "O=C1c2ccccc2C(=O)N1c1ccc(Cl)cc1", "growth rescue (activation)": "inactive: 4.89%"}
{"smiles": "COc1ccc(NC(=S)Nc2ccc(OCc3ccccc3)cc2)c(OC)c1", "Potency": "inconclusive: 35.5 µM [activator, single point]"}
{"smiles": "CCN(CC(=O)NC(c1ccccc1)c1ccccc1)Cc1nc2ccccc2c(=O)[nH]1", "growth rescue (activation)": "inactive: 0.79%"}
{"smiles": "CCN1C(=O)/C(=C/c2ccc(OCc3ccc(C(=O)O)cc3)c(Cl)c2)NC1=S", "Potency": "inconclusive: 2.82 µM [activator, partial curve]"}
{"smiles": "Cc1oc2cc(O)cc(O)c2c(=O)c1-c1ccc2c(c1)OCCCO2", "Potency": "inconclusive: 22.4 µM [activator, partial curve]"}
{"smiles": "O=C(c1cn(Cc2ccccc2)nc1-c1ccccc1)N1CCN(c2ccccn2)CC1", "growth rescue (activation)": "inactive: 10.8%"}
{"smiles": "O=C(c1ccccc1)c1cccc(C(=O)c2ccccc2)c1", "Potency": "inconclusive: 12.6 µM [activator, partial curve]"}
{"smiles": "Cn1cccc1/C=C1\\SC(=O)N(c2ccccc2)C1=O", "growth rescue (activation)": "inactive: 3.91%"}
{"smiles": "COc1cccc(/C=C/C(=O)c2cccc([N+](=O)[O-])c2)c1OC", "growth rescue (activation)": "inactive: 1.65%"}
{"smiles": "COc1ccc(/C=N\\Nc2ccc([N+](=O)[O-])cc2)c(C(=O)O)c1OC", "Potency": "inconclusive: 14.1 µM [activator, partial curve]"}
{"smiles": "Cc1cc(C)cc(OCCn2c(C3CC(=O)N(c4ccccc4Cl)C3)nc3ccccc32)c1", "note": "(centres undefined)", "Potency": "inconclusive: 35.5 µM [activator, single point]"}
{"smiles": "COCc1cc(C)nc(N2CCc3ccccc32)c1C#N", "Potency": "inconclusive: 11.2 µM [activator, partial curve]"}
{"smiles": "O=c1c(Br)c(N2CCOCC2)cnn1-c1ccccc1", "Potency": "inconclusive: 35.5 µM [activator, single point]"}
{"smiles": "CC1CCCC(NC(=O)NC(=O)COC(=O)c2ccc(O)cc2O)C1C", "note": "(centres undefined)", "Potency": "inconclusive: 22.4 µM [activator, single point]"}
{"smiles": "CN1CCCN(c2ccc([N+](=O)[O-])cc2)CC1", "growth rescue (activation)": "inactive: -5.11%"}
{"smiles": "Cc1cc(S(=O)(=O)Nc2cccc(Cl)c2)c(C)s1", "Potency": "inconclusive: 35.5 µM [activator, single point]"}
{"smiles": "CCOC(=O)c1sc2nc(N3CCOCC3)c3c(c2c1N)CCN(Cc1ccccc1)C3", "growth rescue (activation)": "inactive: 1.17%"}
{"smiles": "O=C1O/C(=C/Br)CCC1c1cccc2ccccc12", "note": "(centres undefined)", "Potency": "inconclusive: 2.91 µM [activator, single point]"}
{"smiles": "O=C(Nc1cc(-c2ccccc2)cs1)c1ccco1", "Potency": "inconclusive: 12.6 µM [activator, partial curve]"}
{"smiles": "CC(C)CC(c1nnnn1Cc1ccco1)N1CCN(c2cccc(Cl)c2)CC1", "note": "(centres undefined)", "Potency": "inconclusive: 12.6 µM [activator, partial curve]"}
{"smiles": "CC(C)Oc1ccc(C(=O)/C(=C\\c2cccs2)c2nc3ccccc3o2)cc1", "Potency": "active: 10 µM"}
{"smiles": "NC(=O)c1ccc(NCCc2ccccc2)c([N+](=O)[O-])c1", "Potency": "inconclusive: 35.5 µM [activator, single point]"}
